Assay results as given in paper doi:10.1101/2023.10.13.562244.
These are yes or no findings as the source states them, for the method shown. Binding seen in cells or lysates may run through a third protein. Some binding calls cover weakened binding; strength is not graded here.

Sequences of proteins named here, by UniProt entry; tags and fusion partners are left off.
UniProt Q3TKT4: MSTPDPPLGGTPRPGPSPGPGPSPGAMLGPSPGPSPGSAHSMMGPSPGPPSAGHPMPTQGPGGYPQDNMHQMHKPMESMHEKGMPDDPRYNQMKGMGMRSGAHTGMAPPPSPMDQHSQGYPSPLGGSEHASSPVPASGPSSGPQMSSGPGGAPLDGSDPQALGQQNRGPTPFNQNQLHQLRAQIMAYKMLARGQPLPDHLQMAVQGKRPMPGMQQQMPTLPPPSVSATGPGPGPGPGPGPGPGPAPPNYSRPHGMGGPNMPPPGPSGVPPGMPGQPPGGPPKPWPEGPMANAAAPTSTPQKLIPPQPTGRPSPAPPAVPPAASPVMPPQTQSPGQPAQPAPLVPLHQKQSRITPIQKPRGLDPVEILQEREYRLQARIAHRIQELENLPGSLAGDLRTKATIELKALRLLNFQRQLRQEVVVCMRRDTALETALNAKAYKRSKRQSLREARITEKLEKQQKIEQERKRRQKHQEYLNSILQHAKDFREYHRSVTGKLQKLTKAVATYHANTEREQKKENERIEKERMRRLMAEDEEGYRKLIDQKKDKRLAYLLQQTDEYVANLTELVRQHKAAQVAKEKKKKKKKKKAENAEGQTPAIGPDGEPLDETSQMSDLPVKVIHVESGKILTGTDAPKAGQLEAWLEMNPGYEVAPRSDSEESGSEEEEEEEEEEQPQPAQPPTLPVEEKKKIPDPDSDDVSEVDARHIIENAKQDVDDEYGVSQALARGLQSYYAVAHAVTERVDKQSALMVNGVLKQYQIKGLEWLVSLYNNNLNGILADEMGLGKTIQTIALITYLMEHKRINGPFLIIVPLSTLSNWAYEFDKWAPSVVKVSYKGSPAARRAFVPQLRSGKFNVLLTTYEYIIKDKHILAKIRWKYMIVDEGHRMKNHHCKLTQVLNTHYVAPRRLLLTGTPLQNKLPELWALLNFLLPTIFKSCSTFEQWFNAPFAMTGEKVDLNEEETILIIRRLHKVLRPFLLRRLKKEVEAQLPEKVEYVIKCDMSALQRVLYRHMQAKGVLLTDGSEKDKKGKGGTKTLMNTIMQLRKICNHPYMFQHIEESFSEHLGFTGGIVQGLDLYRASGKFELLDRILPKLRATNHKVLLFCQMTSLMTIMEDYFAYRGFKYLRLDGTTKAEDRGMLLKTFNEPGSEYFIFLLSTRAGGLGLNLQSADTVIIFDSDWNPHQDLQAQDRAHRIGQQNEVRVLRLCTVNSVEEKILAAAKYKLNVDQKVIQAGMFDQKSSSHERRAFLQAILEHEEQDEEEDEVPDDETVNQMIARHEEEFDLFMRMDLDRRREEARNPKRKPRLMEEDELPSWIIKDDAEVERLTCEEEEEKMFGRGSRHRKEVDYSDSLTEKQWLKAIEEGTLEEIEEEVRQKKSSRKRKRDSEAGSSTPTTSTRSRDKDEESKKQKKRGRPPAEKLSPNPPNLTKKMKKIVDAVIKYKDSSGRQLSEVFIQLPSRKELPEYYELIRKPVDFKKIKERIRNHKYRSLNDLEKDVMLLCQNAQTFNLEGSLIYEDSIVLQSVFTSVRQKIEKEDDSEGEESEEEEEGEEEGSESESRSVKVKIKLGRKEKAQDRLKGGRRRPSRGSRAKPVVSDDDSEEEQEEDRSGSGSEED

Target: T1, Dclk2 (doublecortin like kinase 2) (mouse (endogenous in primary cortical neurons)) (UniProt Q6PGN3)
T1 sequence: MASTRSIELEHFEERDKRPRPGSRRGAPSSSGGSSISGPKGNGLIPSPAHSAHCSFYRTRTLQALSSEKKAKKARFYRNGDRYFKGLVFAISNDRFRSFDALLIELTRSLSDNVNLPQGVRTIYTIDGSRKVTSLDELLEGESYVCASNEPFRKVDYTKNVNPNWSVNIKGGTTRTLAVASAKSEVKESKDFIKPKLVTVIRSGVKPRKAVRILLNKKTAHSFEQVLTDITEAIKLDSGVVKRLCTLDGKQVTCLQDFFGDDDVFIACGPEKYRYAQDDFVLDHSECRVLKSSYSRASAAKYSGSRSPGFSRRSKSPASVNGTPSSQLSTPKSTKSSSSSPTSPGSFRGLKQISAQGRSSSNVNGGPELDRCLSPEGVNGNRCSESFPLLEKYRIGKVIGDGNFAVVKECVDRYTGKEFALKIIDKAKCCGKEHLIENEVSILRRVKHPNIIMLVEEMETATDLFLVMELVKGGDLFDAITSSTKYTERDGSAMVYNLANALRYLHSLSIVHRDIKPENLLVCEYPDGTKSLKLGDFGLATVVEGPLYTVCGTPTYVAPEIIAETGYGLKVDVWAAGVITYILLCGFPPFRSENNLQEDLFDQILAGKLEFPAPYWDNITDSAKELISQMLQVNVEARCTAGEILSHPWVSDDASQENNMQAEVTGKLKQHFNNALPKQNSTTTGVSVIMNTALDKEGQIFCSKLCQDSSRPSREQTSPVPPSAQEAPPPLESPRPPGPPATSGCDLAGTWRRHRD
Assay: co-IP

binding: binds
Substance: Brg1/Smarca4 (from UniProt Q3TKT4 1-1613)
